Data reported in the supplement of paper PMC8497498.
The list shows a part of the results. The data scatter; read single values as rough.

How the values were obtained:
Conditions in all cases: 10 µM
[1] = system: Plasmodium vivax liver stage (primary human hepatocyte culture); test: hypnozoite quantity inhibition (% inhibition); higher = more active against hypnozoites
[2] = system: Plasmodium vivax liver stage (primary human hepatocyte culture); test: schizont net growth area inhibition (% inhibition); higher = more active against liver schizonts
[3] = system: primary human hepatocytes; test: hepatic nuclei reduction relative to DMSO (100 - % of negative control); higher = more toxic to hepatocytes
[4] = assay mode: Prophylactic (treated before or shortly after infection), fixed day 6 post-infection
[5] = assay mode: Radical Cure (treated from day 5 post-infection for 3 days), fixed day 8 post-infection

Row | Compound | hypnozoite quantity inhibition [1, 4] | hypnozoite quantity inhibition [1, 5] | schizont net growth area inhibition [2, 4] | schizont net growth area inhibition [2, 5] | hepatic nuclei reduction [3, 4] [%] | hepatic nuclei reduction [3, 5] [%]
1 | COc1ccc(C2c3ccc4ccccc4c3Oc3ncn(CCCn4ccnc4)c(=N)c32)cc1OC (stereo not given) | -5 | 40.5 | -71.2 | -64.6 | -3 | -6
2 | Cn1c(C(=O)c2cccc3ccccc23)nc2ccccc21 | 37.3 | 15.6 | 18.5 | 26.8 | 6 | 0
3 | O=C(c1ccc(NCCO)cc1)C1C[C@H]1c1ccc(Cl)cc1 (stereo not given in full) | -15 | -22 | -11.4 | 27.9 | -3 | -4
4 | O=C(Nc1ccc(CN2CCOCC2)cc1)c1ccc(-c2ccc(Br)cc2)o1 | -6.3 | 23.7 | -3.3 | -80.5 | -3 | -7
5 | Brc1ccc(Nc2nc3ccccc3nc2Nc2ccc(Br)cc2)cc1 | 70.8 | 47.3 | 97.2 | 51.4 | -4 | -2
6 | O=C(Nc1ccc(F)c(-c2nc3cc(-c4ccccc4)cnc3[nH]2)c1)N1CCCC1 | -64 | 4 | 37.2 | 11.3 | -4 | -3
7 | O=C(Nc1ccc(Cl)c(Cl)c1)Nc1ccc(Cl)c(Cl)c1 | 32.2 | 53.7 | 45 | -7.4 | 2 | -4
8 | CCCCc1ccc(NS(=O)(=O)c2cc3c4c(c2)CCN4C(=O)CC3)cc1 | -5 | 19.8 | -35.4 | -1.7 | -3 | -1
9 | CCc1c(C)nc(-n2nc(C)cc2NC(=O)c2ccccc2SC)[nH]c1=O | 21 | 6 | 0.9 | -14 | 10 | 2
10 | CN1CCN(c2nc(Nc3ccc(O)cc3)nc3ccccc23)CC1 | -7.6 | 21 | 3.9 | -152 | -2 | -10
11 | O=C(C(Cc1c[nH]c2ccccc12)NS(=O)(=O)c1ccc(Cl)cc1)N1CCCCC1 (stereo not given) | 28 | -46 | 16.6 | -41.1 | 13 | 5
12 | CCCCS(=O)(=O)Nc1ccc2cnn(C)c2c1 | -33 | -41 | 12.8 | -65.3 | -6 | -1
13 | O=C1N(Cc2cc3ccccc3s2)CC2CN(Cc3ccccc3)CCN12 (stereo not given) | 56 | -80 | 102 | 67.7 | 2 | -6
14 | N=C(N)c1ccc(-c2cc(-c3ccccc3)on2)cc1 | 10 | -15 | 41.4 | -54.1 | -3 | -6
15 | COc1ccc(-c2cnc3ccc(NCc4ccc(S(N)(=O)=O)cc4)nn23)cn1 | 78 | 26 | 106 | 99.7 | -11 | -1
16 | CS(=O)(=O)c1ccc(C(=O)N(CC2CCCO2)c2nc3ccccc3s2)cc1[N+](=O)[O-] (stereo not given) | 17 | -31 | -4 | 50.6 | 13 | 10
17 | CC(C)(C(=O)Nc1ccc(F)cc1)n1cc(-c2ccccc2F)cn1 | 18 | 11 | 34.3 | -65.6 | -4 | -8
18 | CC(C)(C)CC(C)(C)NCC(O)COc1ccc2c(c1)CCC2 (stereo not given) | 0.6 | 29.2 | -5 | -10 | 6 | -12
19 | COc1cc(C2=NCCN2)ccc1-c1cn(-c2cccc(C3=NCCN3)c2)nn1 | -44 | -72 | -7.7 | -97 | 11 | -1
20 | Cc1ccc(CSCc2ccc(C(=O)NC3CC3)o2)cc1 | 5.7 | 29.2 | -14.3 | -20.7 | 2 | 1
21 | Cc1cc(N2CCN(C3CCCC3)CC2)n2c(nc3ccccc32)c1C#N | 18.3 | 18.3 | -8.2 | 16.3 | 0 | -7
22 | CC(=O)NC[C@@H]1CN(c2ccc(N3CCOCC3)c(F)c2)C(=O)O1 | 18 | -31 | 38.5 | 16.3 | -2 | -5
23 | Cc1cc2nc3c(=O)[nH]c(=O)nc-3n(CC(O)C(O)C(O)CO)c2cc1C (stereo not given) | -39 | 41 | -105 | -23.1 | -4 | 0
24 | c1csc(-c2cnc3sc(NCC4CCOCC4)nn23)c1 | -10 | -15 | 30.3 | -140 | -5 | -4
25 | c1ccc(Oc2ccc(-c3cc(N4CCOCC4)[nH]n3)cc2)cc1 | 1 | -7 | 8.5 | -91.6 | -13 | 0
26 | O=C(c1cc2ccccc2o1)N1CCN(Cc2ccc3c(c2)OCO3)CC1 | -9 | -20 | -40.3 | -105 | -4 | -1
27 | COc1cc(Br)cc2cc(C(=O)Nc3cccc(C(F)(F)F)c3)c(=O)oc12 | 8 | -23 | -26 | -95.8 | 7 | 2
28 | O=C(Nc1ccc(C23CC4CC(CC(c5ccccc5)(C4)C2)C3)cc1)c1cccs1 | 34.8 | 37.4 | 43 | -11.6 | -1 | 7
29 | NS(=O)(=O)c1cncc(-c2ccc3nccc(-c4cn[nH]c4)c3n2)c1 | -7 | -29 | -101 | 5.9 | -4 | 1
30 | CNCCCNc1ccnc2cc(Cl)ccc12 | -25.8 | 54.2 | -35.1 | 43.5 | -9 | 4

Individual results from the results shown:
Entry of O=C(Nc1ccc(C23CC4CC(CC(c5ccccc5)(C4)C2)C3)cc1)c1cccs1 under schizont net growth area inhibition [2, 5]: -11.6
Entry of CC(C)(C)CC(C)(C)NCC(O)COc1ccc2c(c1)CCC2 (stereo not given) under hepatic nuclei reduction [3, 5] [%]: -12
